Measurements from patent US8772269B2, “Use of sulfonamide-including compounds in combination with angiogenesis inhibitors” (Eisai R&D Management Co., Ltd., priority 2004, dated 2014).

System: 36 human cancer cell lines
Assay: Cancer cell line panel experiment (correlation of antiproliferative activity)
Format: cell-based
Settings: Pearson's correlation of 50% growth inhibitory concentration patterns over 36 cell lines; for correlation coefficient with CQS: vs CQS; for correlation coefficient with E7070: vs E7070; for correlation coefficient with E7820: vs E7820; for correlation coefficient with LY186641: vs LY186641; for correlation coefficient with LY295501: vs LY295501

Structure (SMILES)	correlation coefficient with CQS	correlation coefficient with E7070	correlation coefficient with E7820	correlation coefficient with LY186641	correlation coefficient with LY295501
O=C(Nc1ccc(Cl)cc1)NS(=O)(=O)c1ccc2c(c1)CCC2 [LY186641, N-[[(4-chlorophenyl)amino]carbonyl]-2,3-dihydro-1H-indene-5-sulfonamide]	0.92	0.93	0.95	1.00	0.81
O=C(Nc1ccc(Cl)c(Cl)c1)NS(=O)(=O)c1ccc2c(c1)CCO2 [LY295501, N-[[(3,4-dichlorophenyl)amino]-carbonyl]-2,3-dihydrobenzofuran-5-sulfonamide]	0.82	0.80	0.82	0.81	1.00
NS(=O)(=O)c1ccc(S(=O)(=O)Nc2cccc3c(Cl)c[nH]c23)cc1 [E7070, N-(3-chloro-1H-indol-7-yl)-4-sulfamoylbenzenesulfonamide]	0.97	1.00	0.98	0.93	0.80
Nc1ccc(S(=O)(=O)Nc2cnc3c(Cl)cccc3n2)cc1 [CQS, 2-sulfanylamido-5-chloroquinoxaline]	1.00	0.97	0.96	0.92	0.82
Cc1ccc(NS(=O)(=O)c2cccc(C#N)c2)c2[nH]cc(C#N)c12 [E7820, N-(3-cyano-4-methyl-1H-indol-7-yl)-3-cyanobenzenesulfonamide]	0.96	0.98	1.00	0.95	0.82
